PubChem BioAssay AID504784, Drosophila RNAi Screening Center – 2011
In all, the deposit lists about 17,000 reagents; shown is an unselected part of those with a known target gene and a result. 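Each column is one replicate's B-score; the combined score over replicates was not deposited, so single values may mislead.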 A plus sign joins genes that one reagent is predicted to hit.

Aim: 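Genome-wide knock-down for genes giving too much or too little stored lipid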 (primary screen)
System: Drosophila Kc167 embryonic cells
Reagents: long dsRNA against Drosophila genes, about 250 ng dsRNA per well
Timing: 4 days
Challenge: cells fed 400 µM oleic acid bound to BSA
Measured: 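Cells imaged and segmented; ratio of lipid droplet area to nuclear area, log-transformed, then normalised as a B-score over the screen; higher means more stored lipid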
Scale: droplet/nuclear area B-score: higher = more stored lipid (overstorage)

Depletion of CG42372 + CG30100 [DRSC05602] gave: droplet/nuclear area B-score, replicate 1 = -0.595; droplet/nuclear area B-score, replicate 2 = 0.203.
With knock-down of Dh44-R1 (Diuretic hormone 44 receptor 1) [DRSC07172], the record shows droplet/nuclear area B-score, replicate 1 = -0.0318; droplet/nuclear area B-score, replicate 2 = 0.876.
For CG31019 [DRSC13994] the deposit lists droplet/nuclear area B-score, replicate 1 = 1.4; droplet/nuclear area B-score, replicate 2 = -1.15.
ATP8B (ATPase 8B) [DRSC14961] showed droplet/nuclear area B-score, replicate 1 = -0.0931; droplet/nuclear area B-score, replicate 2 = 0.696.
galectin [DRSC00305] showed droplet/nuclear area B-score, replicate 1 = -1; droplet/nuclear area B-score, replicate 2 = 1.33.
With knock-down of ric8a [DRSC18093], the screen gave droplet/nuclear area B-score, replicate 1 = 1.86; droplet/nuclear area B-score, replicate 2 = -0.72; droplet/nuclear area B-score, replicate 3 = 0.969.
After knock-down of CG14340 [DRSC00370], the screen gave droplet/nuclear area B-score, replicate 1 = 0.341; droplet/nuclear area B-score, replicate 2 = 0.28.
With knock-down of Mst89B [DRSC16748] the results were droplet/nuclear area B-score, replicate 1 = 1.21; droplet/nuclear area B-score, replicate 2 = -0.962.
CG2006 + Spase12 [DRSC14316] scored droplet/nuclear area B-score, replicate 1 = -0.257; droplet/nuclear area B-score, replicate 2 = 0.262.
Silencing of CG13681 (retired record) [DRSC08906] came out at: droplet/nuclear area B-score, replicate 1 = 0.0925; droplet/nuclear area B-score, replicate 2 = -0.0615.
With knock-down of CG13681 (retired record) [DRSC08907] the results were droplet/nuclear area B-score, replicate 1 = 0.86; droplet/nuclear area B-score, replicate 2 = -0.548.
With knock-down of CG13681 (retired record) [DRSC10038], the record shows droplet/nuclear area B-score, replicate 1 = -0.0582; droplet/nuclear area B-score, replicate 2 = -0.0491.
For CG13681 (retired record) [DRSC10039] the deposit lists droplet/nuclear area B-score, replicate 1 = -0.241; droplet/nuclear area B-score, replicate 2 = -0.904.
Against CG13681 (retired record) [DRSC10927] the deposit lists droplet/nuclear area B-score, replicate 1 = 0.0407; droplet/nuclear area B-score, replicate 2 = 1.74.
CG13681 (retired record) [DRSC10929] scored droplet/nuclear area B-score, replicate 1 = 0.0133; droplet/nuclear area B-score, replicate 2 = -0.167.
After knock-down of dtr (defective transmitter release) [DRSC01847] the results were droplet/nuclear area B-score, replicate 1 = 2.47; droplet/nuclear area B-score, replicate 2 = -0.265.
CG14795 [DRSC18513] gave droplet/nuclear area B-score, replicate 1 = -0.626; droplet/nuclear area B-score, replicate 2 = -0.977.
Silencing of BtbVII (BTB-protein-VII) [DRSC08151] resulted in: droplet/nuclear area B-score, replicate 1 = 1.69; droplet/nuclear area B-score, replicate 2 = -0.0079.
With knock-down of BtbVII (BTB-protein-VII) [DRSC08415] the results were droplet/nuclear area B-score, replicate 1 = -0.479; droplet/nuclear area B-score, replicate 2 = -0.104.
CG1640 [DRSC19750] showed droplet/nuclear area B-score, replicate 1 = -0.0636; droplet/nuclear area B-score, replicate 2 = -1.49; droplet/nuclear area B-score, replicate 3 = 1.08.
With knock-down of CG31204 [DRSC15106], the record shows droplet/nuclear area B-score, replicate 1 = 0.47; droplet/nuclear area B-score, replicate 2 = 1.48.
Knock-down of Bet5 (Blocked early in transport 5) [DRSC14600] gave: droplet/nuclear area B-score, replicate 1 = -0.727; droplet/nuclear area B-score, replicate 2 = -0.417.

Single entries from above.
CG14795 [DRSC18513], droplet/nuclear area B-score, replicate 2 = -0.977
ric8a [DRSC18093], droplet/nuclear area B-score, replicate 2 → -0.72
Value of CG13681 (retired record) [DRSC10038] in “droplet/nuclear area B-score, replicate 1”: -0.0582
Result for Bet5 (Blocked early in transport 5) [DRSC14600] in “droplet/nuclear area B-score, replicate 2”: -0.417
CG14340 [DRSC00370], droplet/nuclear area B-score, replicate 2: 0.28
Entry of CG2006 + Spase12 [DRSC14316] in “droplet/nuclear area B-score, replicate 2”: 0.262

More results follow.
Knock-down of CG8765 [DRSC11041] gave: droplet/nuclear area B-score, replicate 1 = 0.604; droplet/nuclear area B-score, replicate 2 = -0.161.
Against CG8765 [DRSC23043], the values are droplet/nuclear area B-score, replicate 1 = -0.174; droplet/nuclear area B-score, replicate 2 = 0.59.
After knock-down of Ran [DRSC20364] the results were droplet/nuclear area B-score, replicate 1 = 0.237; droplet/nuclear area B-score, replicate 2 = 1.49; droplet/nuclear area B-score, replicate 3 = -1.12.
Depletion of hoip (hoi-polloi) [DRSC03546] resulted in: droplet/nuclear area B-score, replicate 1 = 2.49; droplet/nuclear area B-score, replicate 2 = 2.52.
Against ND-24 (NADH dehydrogenase (ubiquinone) 24 kDa subunit) [DRSC19960], the values are droplet/nuclear area B-score, replicate 1 = 2.48; droplet/nuclear area B-score, replicate 2 = 1.02.
Knock-down of mdu (meduse) [DRSC19860] gave: droplet/nuclear area B-score, replicate 1 = -2.15; droplet/nuclear area B-score, replicate 2 = -0.882; droplet/nuclear area B-score, replicate 3 = 2.84.
mdu (meduse) [DRSC23192] scored droplet/nuclear area B-score, replicate 2 = 2.
For CG13640 [DRSC14639] the deposit lists droplet/nuclear area B-score, replicate 1 = 0.08; droplet/nuclear area B-score, replicate 2 = -1.28.
Against CG31821 [DRSC22162], the values are droplet/nuclear area B-score, replicate 1 = -0.895; droplet/nuclear area B-score, replicate 2 = 0.162.
Sgs7 (Salivary gland secretion 7) [DRSC11281] showed droplet/nuclear area B-score, replicate 1 = 0.371; droplet/nuclear area B-score, replicate 2 = 0.819.
After knock-down of CG7025 [DRSC03002], the screen gave droplet/nuclear area B-score, replicate 1 = -0.036; droplet/nuclear area B-score, replicate 2 = -2.66.
With knock-down of CG4734 [DRSC06885] the results were droplet/nuclear area B-score, replicate 1 = 0.463; droplet/nuclear area B-score, replicate 2 = -2.03.
CG4734 [DRSC22072] showed droplet/nuclear area B-score, replicate 1 = 0.242; droplet/nuclear area B-score, replicate 2 = 0.76.
z (zeste) [DRSC18855] showed droplet/nuclear area B-score, replicate 1 = 0.186; droplet/nuclear area B-score, replicate 2 = 0.00339.
Silencing of z (zeste) [DRSC23134] gave: droplet/nuclear area B-score, replicate 1 = -0.248; droplet/nuclear area B-score, replicate 2 = -2.04.
For CG30339 [DRSC05168] the deposit lists droplet/nuclear area B-score, replicate 1 = 0.958; droplet/nuclear area B-score, replicate 2 = 0.443.
eIF2gamma (eukaryotic translation initiation factor 2 subunit gamma) [DRSC13081] gave droplet/nuclear area B-score, replicate 1 = 4.54; droplet/nuclear area B-score, replicate 2 = 3.68.
For eIF2gamma (eukaryotic translation initiation factor 2 subunit gamma) [DRSC16873], the entry reads droplet/nuclear area B-score, replicate 1 = -0.199; droplet/nuclear area B-score, replicate 2 = -0.432.
